From PubChem BioAssay AID1487 (National Center for Advancing Translational Sciences (NCATS), 2009)
Values joined by “and” are separate entries in the source; they are usually repeats but may differ in a detail not shown here. Identical values can stand only once. The list shows a part of the results. Shown are side measurements of this screen, not its main read-out; they come without a call. Compounds called inactive in the main read-out are mostly missing here. Words in brackets tell the shape of the fitted curve; partial curves, single points and poor fits give uncertain potencies.

Experiment: qHTS Assay for Modulators of Lamin A Splicing
Details: HeLa LMNA splicing GFP/RFP minigene ratio, 48 h
How it was run: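 Read-out is the ratio of GFP to DsRed2 object intensity, acquired by 488 nm laser-scanning cytometry on HeLa lamin A-EGFP minigene reporter cells. Compound incubation 48 hrs at 37 °C in Opti-MEM with 2% FBS; DMSO 0.5% final.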

[1] = measured here: GFP splicing reporter channel
[2] = measured here: RFP viability control channel

## Cc1ccc(C(C)C)c(OCc2ccc(-c3nnco3)cc2)c1
[1]
  AC50: 0.00891 µM [rising, full curve, poor fit]
[2]
  AC50: 35.5 µM [rising, single point]

## O=C(Nc1ccc(Br)cc1)c1ccc(Br)c(S(=O)(=O)Nc2cccnc2)c1
[1]
  AC50: 35.5 µM [falling, single point]

## O=C(COC(=O)c1cc(-c2cccs2)nc2ccccc12)NCc1ccco1
[2]
  AC50: 22.4 µM [falling, partial curve, poor fit]

## Cn1c(=O)c(C(=S)NC(=O)C2CC2)c(N)n(Cc2ccccc2)c1=O
[2]
  AC50: 31.6 µM [rising, single point]

## Cc1ccccc1OCC(=O)N/N=C/c1ccncc1
[2]
  AC50: 0.0224 µM [rising, full curve, poor fit]

## COc1ccc(N2CCN(Cc3cc(=O)oc4cc(-c5ccccc5)c(O)cc34)CC2)cc1
[1]
  AC50: 10 µM [rising, single point]

## Cc1nc2c3cc(Cl)ccc3n(CCN3CCCCC3)c2s1
[2]
  AC50: 31.6 µM [rising, single point]

## O=C1NCCCC2c3cc(O)c4ccccc4c3OC12N1CCCCC1 (stereo not given)
[2]
  AC50: 35.5 µM [rising, single point]

## COc1ccc(CNc2ccnc(-c3c(C)noc3C)n2)c(OC)c1
[1]
  AC50: 11.2 µM [falling, partial curve, poor fit]

## Clc1ccc(CSc2nnc(Cn3cnc4ccccc43)o2)cc1
[2]
  AC50: 11.2 µM [rising, partial curve]

## Cc1ccc(N/N=C/c2cccnc2)cc1
[2]
  AC50: 35.5 µM [rising, single point]

## CC(C)CC(NC(=O)C(CC(C)C)NC(=O)C(Cc1ccc(OCc2ccccc2)cc1)NC(=O)OC(C)(C)C)C(N)=O (stereo not given)
[1]
  AC50: 31.6 µM [falling, single point]
[2]
  AC50: 35.5 µM [falling, single point]

## CC1Cc2ccccc2N1c1ncnc(N)c1[N+](=O)[O-] (stereo not given)
[2]
  AC50: 0.00501 µM [falling, full curve, poor fit]

## COc1ccc(S(=O)(=O)NCC(c2ccco2)S(=O)(=O)c2cccs2)cc1OC (stereo not given)
[2]
  AC50: 11.2 µM [rising, partial curve]

## CC(=O)Nc1cccc(C(=O)/C=C/c2ccc(Br)cc2)c1
[2]
  AC50: 22.4 µM [falling, single point]

## CCOc1ccc(NC(=O)c2cccc(OC(=S)N3CCOCC3)c2)cc1
[2]
  AC50: 2.82 µM [falling, partial curve]

## CCc1ccc(CNC(=O)c2cc3c(C)nc4ccccc4c3o2)cc1
[2]
  AC50: 6.31 µM [rising, single point]

## COc1ccc(CC(=O)Nc2cc3oc4ccccc4c3cc2OC)cc1
[1]
  AC50: 25.1 µM [rising, single point]
[2]
  AC50: 25.1 µM [rising, partial curve]

## O=C(CC(=O)N/N=C/c1ccccc1O)NCc1cccnc1
[2]
  AC50: 31.6 µM [rising, single point]

## Cc1cccc(N=C2NN=C(c3c(C)[nH]c4ccccc34)CS2)c1
[2]
  AC50: 17.8 µM [falling, partial curve]

## CCCCOC(=O)CCNc1n[nH]c(=O)[nH]c1=O
[2]
  AC50: 2.24 µM [falling, partial curve]

## CCOc1ccccc1-n1nnnc1SCC(=O)NCc1ccco1
[2]
  AC50: 0.0631 µM [falling, full curve, poor fit]

## C=CCOCCN(C)C1=NS(=O)(=O)c2cc([N+](=O)[O-])ccc21
[1]
  AC50: 15.8 µM [falling, single point]
[2]
  AC50: 35.5 µM [falling, single point]

## CCNC(=O)CC1SC(=Nc2cccc(Cl)c2C)N(C)C1=O (stereo not given)
[2]
  AC50: 25.1 µM [rising, single point]

## CN(Cc1cccs1)c1ncnc2sccc12
[2]
  AC50: 4.47 µM [rising, full curve]

## CC(C)(C)n1nnnc1C(c1ccc2ncccc2c1)N1CCSCC1 (stereo not given)
[1]
  AC50: 12.6 µM [falling, partial curve]

## CCOC(=O)c1c(C)nn(-c2ncccc2NC(=O)CCC(=O)O)c1C
[1]
  AC50: 0.316 µM [falling, partial curve, poor fit]

## Cc1cc(C)c2nc(NNC(=O)c3ccc(S(=O)(=O)N4CC(C)CC(C)C4)cc3)sc2c1 (stereo not given)
[1]
  AC50: 35.5 µM [falling, single point]

## COC(=O)C1=CN(c2ccc(OC)cc2)C=C(C(=O)OC)C1c1ccc(C)c([N+](=O)[O-])c1
[1]
  AC50: 35.5 µM [rising, single point]

## CC1=NN(c2ccccc2)C(=O)C1N=Nc1ccc(N)cc1 (stereo not given)
[2]
  AC50: 10 µM [rising, partial curve]

## Cc1ccc(OCCSc2nc3ccc(NC(=O)COc4ccc(C)cc4)cc3s2)cc1
[1]
  AC50: 35.5 µM [falling, partial curve]
[2]
  AC50: 35.5 µM [falling, single point]

## COc1ccc(N2C(=O)C3CCCCC3C2=O)cc1NC(=O)c1ccccc1 (stereo not given)
[1]
  AC50: 0.0158 µM [falling, full curve, poor fit]
[2]
  AC50: 0.0158 µM [falling, full curve, poor fit]

## CC(C)c1nc(N2CCOCC2)c(C#N)c2c1CCC2
[1]
  AC50: 22.4 µM [rising, single point]
[2]
  AC50: 15.8 µM [rising, partial curve, poor fit]

## CC1CCN(C(=O)c2ccc(CSc3nc4ccncc4n3Cc3ccc(F)cc3)cc2)CC1
[1]
  AC50: 8.91 µM [rising, partial curve]
[2]
  AC50: 14.1 µM [rising, partial curve]

## CN1CCN(S(=O)(=O)c2cccc(S(=O)(=O)c3ccc(Cl)cc3)c2)CC1
[1]
  AC50: 12.6 µM [rising, partial curve]
[2]
  AC50: 14.1 µM [rising, partial curve]

## Cc1nc(Sc2nnnn2C)c2c3c(sc2n1)CCC3
[1]
  AC50: 3.98 µM [falling, full curve]

## O=C(CCN1CCOCC1)Nc1ccccc1
[2]
  AC50: 0.355 µM [falling, full curve, poor fit]

## NNCCc1ccccc1
[1]
  AC50: 501 nM [falling, partial curve, poor fit] and 2.51 µM [rising, full curve, poor fit]
[2]
  AC50: 0.501 µM [falling, partial curve, poor fit]

## CCCCNC(=O)c1ccc(-c2nc(CN3CCc4ccccc43)c(C)o2)cc1
[1]
  AC50: 4.47 µM [falling, full curve, poor fit]
[2]
  AC50: 7.08 µM [falling, full curve]

## Fc1ccc(CN2C3=NCCCN3c3ccccc32)cc1
[2]
  AC50: 25.1 µM [rising, single point]

## O=C(CSc1nc2c(c(C(F)(F)F)n1)CCc1ccccc1-2)NCc1ccco1
[1]
  AC50: 4.47 µM [rising, partial curve, poor fit]

## CCOC(=O)c1ccccc1NC(=O)Cc1sc(-c2cccnc2)nc1-c1ccc(C)cc1
[2]
  AC50: 14.1 µM [rising, single point]

## CN(C)c1ccc(NC(=O)/C=C/c2c(Cl)cccc2Cl)cc1
[2]
  AC50: 6.31 µM [rising, partial curve]

## CN1CCN(CC(=O)N2CCn3c4c(c5cc(C6CCCCC6)ccc53)CCCC42)CC1 (stereo not given)
[1]
  AC50: 28.2 µM [falling, single point]
[2]
  AC50: 35.5 µM [falling, single point]

## O=C(Nc1nccs1)C1CCN(S(=O)(=O)c2ccc3c(c2)OCCCO3)CC1
[2]
  AC50: 11.2 µM [rising, partial curve]

## NC(=O)c1ccccc1NC(=O)CCc1ccccc1
[2]
  AC50: 25.1 µM [rising, partial curve, poor fit]

## CN(c1ccccc1C(=O)NC1CC2CCC1C2)S(=O)(=O)c1ccccc1 (stereo not given)
[2]
  AC50: 0.112 µM [rising, full curve, poor fit]

## Cc1ccc(S(=O)(=O)N2CCC(=O)N(CCOCc3cccc(Cl)c3)CC2)cc1
[1]
  AC50: 35.5 µM [rising, single point]
[2]
  AC50: 35.5 µM [rising, single point]

## COc1nc(C)nc2c1sc(=S)n2C
[1]
  AC50: 6.31 µM [rising, full curve, poor fit]

## O=C(C1CCCCC1)N(CCN1CCCC1)c1nc2ccccc2s1
[1]
  AC50: 0.02 µM [rising, full curve, poor fit]
[2]
  AC50: 5.62 µM [rising, single point]

## O=C(NCc1ccccc1F)C(=O)NCC(c1cccs1)S(=O)(=O)c1cccs1 (stereo not given)
[1]
  AC50: 0.0316 µM [falling, full curve, poor fit]

## CCCCCn1nnc2c(=O)oc3ccccc3c21
[1]
  AC50: 17.8 µM [falling, partial curve, poor fit]
[2]
  AC50: 14.1 µM [rising, single point]

## CCN(CC)S(=O)(=O)c1cc(NC(=O)CSc2nc3c(cc2C#N)C(=O)CC(C)(C)C3)ccc1C
[2]
  AC50: 10 µM [rising, partial curve]

## C=CCn1c(NC(=O)c2ccccc2Cl)c(C#N)c2nc3ccccc3nc21
[2]
  AC50: 11.2 µM [rising, single point]

## O=C(Nc1ccc(F)cc1)C(Sc1nc2ccccc2[nH]1)c1ccccc1 (stereo not given)
[1]
  AC50: 7.08 µM [rising, partial curve]
[2]
  AC50: 10 µM [rising, partial curve]

## Cc1cccc(NCC(=O)NNC(=S)Nc2ccccc2)c1
[2]
  AC50: 0.0794 µM [rising, full curve, poor fit]

## Cc1cccc(-c2nnc(SCc3nc4ccccc4[nH]3)n2Cc2ccco2)c1
[1]
  AC50: 35.5 µM [rising, single point]
[2]
  AC50: 35.5 µM [rising, single point]

## COc1ccc(OC)c(NC(=O)c2c(NC(=O)CCC(=O)O)sc3c2CCCCC3)c1
[1]
  AC50: 35.5 µM [rising, single point]
